No constants are given. Whether binding was seen depends on the method and setting.

The target in this assay is UGDH A82T (human) (UniProt O60701). Description: SEC; analytical gel filtration of each apoprotein alone; 1x PBS with 1 mM DTT, 0.5 mL/min, Superdex gel filtration column, elution followed by A280; peaks compared with known hexamer, dimer and monomer elution times; both purified. In general terms: Size exclusion chromatography separates by hydrodynamic size, large species first.

B1: UGDH A82T (enzyme, UniProt O60701 1-494)
chain: MFEIKKICCIGAGYVGGPTCSVIAHMCPEIRVTVVDVNESRINAWNSPTLPIYEPGLKEVVESCRGKNLFFSTNIDDAIKETDLVFISVNTPTKTYGMGKGRAADLKYIEACARRIVQNSNGYKIVTEKSTVPVRAAESIRRIFDANTKPNLNLQVLSNPEFLAEGTAIKDLKNPDRVLIGGDETPEGQRAVQALCAVYEHWVPREKILTTNTWSSELSKLAANAFLAQRISSINSISALCEATGADVEEVATAIGMDQRIGNKFLKASVGFGGSCFQKDVLNLVYLCEALNLPEVARYWQQVIDMNDYQRRRFASRIIDSLFNTVTDKKIAILGFAFKKDTGDTRESSSIYISKYLMDEGAHLHIYDPKVPREQIVVDLSHPGVSEDDQVSRLVTISKDPYEACDGAHAVVICTEWDMFKELDYERIHKKMLKPAFIFDGRRVLDGLHNELQTIGFQIETIGKKVSSKRIPYAPSGEIPKFSLQDPPNKKPKV
As for B1, the binding result is “no binding”.

The values above are taken from article PMC6992768, “Loss-of-function mutations in UDP-Glucose 6-Dehydrogenase cause recessive developmental epileptic encephalopathy” (Nature Communications, 2020).
